No constants are given. Whether binding was seen depends on the method and setting. Some entries that bind do so weakly or less than the wild type.
Biological target: T1, NF-κB p50/p65 heterodimer (human, UniProt P19838 1-366; Q04206 1-306)
T1 construct: NF-κB p50, human, residues 1-366; NF-κB p65 (RelA), human, residues 1-306, untagged; also called wild-type NF-κB; source: subunits from E. coli BL21 DE3, purified; assembled by incubating p50:p65 at 1:1.5 molar ratio; copies: 1 + 1
Assay: native gel or EMSA; competition: purified ΔIBB-importin α3 titrated (up to ~54 μM) against ~130 pmoles of pre-formed p50/p65:IκBα (Fig. 4b lanes 11-16); 1.5% agarose gel; both purified

Sequences of proteins named here, by UniProt entry; tags and fusion partners are left off. A change or cut given only in a name is not applied to a line headed by its entry.
UniProt P19838: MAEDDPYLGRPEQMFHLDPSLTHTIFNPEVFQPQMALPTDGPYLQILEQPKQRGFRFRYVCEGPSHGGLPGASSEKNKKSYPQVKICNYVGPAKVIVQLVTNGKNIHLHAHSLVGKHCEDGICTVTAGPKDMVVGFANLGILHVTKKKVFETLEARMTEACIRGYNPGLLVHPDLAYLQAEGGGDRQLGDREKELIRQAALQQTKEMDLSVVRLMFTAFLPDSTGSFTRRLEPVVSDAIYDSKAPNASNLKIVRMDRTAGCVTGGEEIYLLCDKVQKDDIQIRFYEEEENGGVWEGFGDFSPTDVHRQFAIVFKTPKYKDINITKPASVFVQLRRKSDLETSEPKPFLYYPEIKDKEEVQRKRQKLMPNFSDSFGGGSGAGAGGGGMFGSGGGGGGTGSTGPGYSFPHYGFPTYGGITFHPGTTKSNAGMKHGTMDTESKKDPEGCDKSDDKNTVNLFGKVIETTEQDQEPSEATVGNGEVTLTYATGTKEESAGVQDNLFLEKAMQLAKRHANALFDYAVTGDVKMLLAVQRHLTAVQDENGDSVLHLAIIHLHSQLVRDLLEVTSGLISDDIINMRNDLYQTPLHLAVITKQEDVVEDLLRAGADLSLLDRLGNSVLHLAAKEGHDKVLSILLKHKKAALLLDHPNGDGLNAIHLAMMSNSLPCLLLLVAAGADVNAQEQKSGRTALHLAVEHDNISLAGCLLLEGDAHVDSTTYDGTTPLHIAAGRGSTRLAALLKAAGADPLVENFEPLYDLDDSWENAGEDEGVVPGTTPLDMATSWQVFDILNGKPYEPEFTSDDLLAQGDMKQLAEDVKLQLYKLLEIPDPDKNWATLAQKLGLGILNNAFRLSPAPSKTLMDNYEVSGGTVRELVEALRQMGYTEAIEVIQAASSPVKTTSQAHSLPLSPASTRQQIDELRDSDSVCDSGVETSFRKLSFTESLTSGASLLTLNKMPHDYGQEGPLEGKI

B1: IκBα (residues 67-287) (domain or fragment, UniProt P25963 67-287, looked up)
chain: KQQLTEDGDSFLHLAIIHEEKALTMEVIRQVKGDLAFLNFQNNLQQTPLHLAVITNQPEIAEALLGAGCDPELRDFRGNTPLHLACEQGCLASVGVLTQSCTTPHLHSILKATNYNGHTCLHLASIHGYLGIVELLVSLGADVNAQEPCNGRTALHLAVDLQNPDLVSLLLKCGADVNRVTYQGYSPYQLTWGRPSTRIQQQLGQLTLENLQMLPESEDEE
notes: IκBα, residues 67-287, untagged; source: recombinant, expressed and purified as previously described (pET-11a)
In the case of B1, the binding is reported as “binds”.
